Data on one molecule can be found in PMC12974487, “Inhibition of FicD-mediated AMPylation and deAMPylation by isoprenoid diphosphates” (Proceedings of the National Academy of Sciences of the …, 2026).

This assay addresses wild-type human FicD, soluble ER luminal domain (residues 105 to 458) (human) (UniProt Q9BVA6). In words: SEC; elution volumes of the purified FicD constructs compared (SI Appendix, Fig. S1C); column and buffer not shown; both purified. A general note: In gel filtration, larger molecules generally elute earlier.

No constants are given. Whether binding was seen depends on the method and setting. Some results given as binding are weak or reduced against the parent protein; the word gives no strength.

B1: wild-type human FicD, soluble ER luminal domain (residues 105 to 458) (domain or fragment, UniProt Q9BVA6 105-458)
chain: EARAALNQALEMKRQGKREKAQKLFMHALKMDPDFVDALTEFGIFSEEDKDIIQADYLYTRALTISPYHEKALVNRDRTLPLVEEIDQRYFSIIDSKVKKVMSIPKGNSALRRVMEETYYHHIYHTVAIEGNTLTLSEIRHILETRYAVPGKSLEEQNEVIGMHAAMKYINTTLVSRIGSVTISDVLEIHRRVLGYVDPVEAGRFRTTQVLVGHHIPPHPQDVEKQMQEFVQWLNSEEAMNLHPVEFAALAHYKLVYIHPFIDGNGRTSRLLMNLILMQAGYPPITIRKEQRSDYYHVLEAANEGDVRPFIRFIAKCTETTLDTLLFATTEYSVALPEAQPNHSGFKETLPVKP
Consider B1, for which the binding entry was “binds”.
